Measurements reported in PubChem BioAssay AID1508597 (Cure First, 2020).
Shown is a random part of the about 2,100 reagents, in one setting of the screen. 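Calls flag viability under 80% in either arm, not effects specific to rucaparib; the reference for percent is not stated.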 Entries without a mark were called inactive. A reagent listed more than once was tested more than once; the source does not tell the runs apart. Not stated in the record: the 100% reference.

Screen: 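Knock-downs altering ovarian cancer cell survival with or without PARP inhibitor rucaparib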 (primary screen)
System: human ovarian carcinoma lines grown from tumours: OCI-P5x (papillary serous) and OCI-C5x (clear cell)
Reagents: siRNA pool against human genes, 1.25 pmol siRNA per well
Duration: 72 h or 96 h, depending on the cell culture
Challenge: rucaparib 20 µM (about IC30) or vehicle, present until read-out
Rucaparib or vehicle: Rucaparib
Cell line: OCI-C5x (clear cell)
Measured: 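Luminescent ATP-based viability assay read 72 or 96 h after transfection, depending on culture, given as normalised percent viability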
Scale: viability, normalised: higher = more viable cells remaining
Call rule: 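Active when normalised viability falls below 80 percent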
Meaning of the calls: active = viability under 80%; inactive = viability 80% or more

TAF12 (TATA-box binding protein associated factor 12), technical replicate 1 — viability, normalised (%) = 58.8 (active)
TAF12 (TATA-box binding protein associated factor 12), technical replicate 2 — viability, normalised (%) = 33 (active)
TAF12 (TATA-box binding protein associated factor 12), technical replicate 3 — viability, normalised (%) = 36.6 (active)
DYRK1B, technical replicate 1 — viability, normalised (%) = 55.6 (active)
DYRK1B, technical replicate 2 — viability, normalised (%) = 31.7 (active)
DYRK1B, technical replicate 3 — viability, normalised (%) = 45 (active)
KIF11 (kinesin family member 11), technical replicate 1 — viability, normalised (%) = 33.5 (active)
KIF11 (kinesin family member 11), technical replicate 2 — viability, normalised (%) = 34.7 (active)
KIF11 (kinesin family member 11), technical replicate 3 — viability, normalised (%) = 28.1 (active)
XRCC6 (X-ray repair cross complementing 6), technical replicate 1 — viability, normalised (%) = 33.1 (active)
XRCC6 (X-ray repair cross complementing 6), technical replicate 2 — viability, normalised (%) = 44.2 (active)
XRCC6 (X-ray repair cross complementing 6), technical replicate 3 — viability, normalised (%) = 39.5 (active)
MBD6 (methyl-CpG binding domain protein 6), technical replicate 1 — viability, normalised (%) = 38.1 (active)
MBD6 (methyl-CpG binding domain protein 6), technical replicate 2 — viability, normalised (%) = 31.9 (active)
MBD6 (methyl-CpG binding domain protein 6), technical replicate 3 — viability, normalised (%) = 40.8 (active)
YJU2B (YJU2 splicing factor homolog B), technical replicate 1 — viability, normalised (%) = 63.5 (active)
YJU2B (YJU2 splicing factor homolog B), technical replicate 2 — viability, normalised (%) = 74.2 (active)
YJU2B (YJU2 splicing factor homolog B), technical replicate 3 — viability, normalised (%) = 69.9 (active)
NEK2 (NIMA related kinase 2), technical replicate 1 — viability, normalised (%) = 75.2 (active)
NEK2 (NIMA related kinase 2), technical replicate 1 — viability, normalised (%) = 61.8 (active)
NEK2 (NIMA related kinase 2), technical replicate 2 — viability, normalised (%) = 66.6 (active)
NEK2 (NIMA related kinase 2), technical replicate 2 — viability, normalised (%) = 74.5 (active)
NEK2 (NIMA related kinase 2), technical replicate 3 — viability, normalised (%) = 76.5 (active)
NEK2 (NIMA related kinase 2), technical replicate 3 — viability, normalised (%) = 57.2 (active)
PHF20L1 (PHD finger protein 20 like 1), technical replicate 1 — viability, normalised (%) = 31.5 (active)
PHF20L1 (PHD finger protein 20 like 1), technical replicate 2 — viability, normalised (%) = 32.9 (active)
PHF20L1 (PHD finger protein 20 like 1), technical replicate 3 — viability, normalised (%) = 32.7 (active)
AGO3 (argonaute RISC catalytic component 3), technical replicate 1 — viability, normalised (%) = 50.2 (active)
AGO3 (argonaute RISC catalytic component 3), technical replicate 2 — viability, normalised (%) = 59.5 (active)
AGO3 (argonaute RISC catalytic component 3), technical replicate 3 — viability, normalised (%) = 37.8 (active)
PCDHB4 (protocadherin beta 4), technical replicate 1 — viability, normalised (%) = 47.4 (active)
PCDHB4 (protocadherin beta 4), technical replicate 2 — viability, normalised (%) = 37.7 (active)
PCDHB4 (protocadherin beta 4), technical replicate 3 — viability, normalised (%) = 39.3 (active)
KDM5B (lysine demethylase 5B), technical replicate 1 — viability, normalised (%) = 47.8 (active)
KDM5B (lysine demethylase 5B), technical replicate 2 — viability, normalised (%) = 30.4 (active)
KDM5B (lysine demethylase 5B), technical replicate 3 — viability, normalised (%) = 31.9 (active)
MYLK2 (myosin light chain kinase 2), technical replicate 1 — viability, normalised (%) = 31.3 (active)
MYLK2 (myosin light chain kinase 2), technical replicate 2 — viability, normalised (%) = 46.9 (active)
MYLK2 (myosin light chain kinase 2), technical replicate 3 — viability, normalised (%) = 36.3 (active)
ASXL2 (ASXL transcriptional regulator 2), technical replicate 1 — viability, normalised (%) = 67.6 (active)
ASXL2 (ASXL transcriptional regulator 2), technical replicate 2 — viability, normalised (%) = 45.7 (active)
ASXL2 (ASXL transcriptional regulator 2), technical replicate 3 — viability, normalised (%) = 51 (active)

A stretch taken from the entries so far:
KIF11 (kinesin family member 11), technical replicate 3 — viability, normalised (%) = 28.1 (active)
XRCC6 (X-ray repair cross complementing 6), technical replicate 1 — viability, normalised (%) = 33.1 (active)
XRCC6 (X-ray repair cross complementing 6), technical replicate 2 — viability, normalised (%) = 44.2 (active)
XRCC6 (X-ray repair cross complementing 6), technical replicate 3 — viability, normalised (%) = 39.5 (active)
MBD6 (methyl-CpG binding domain protein 6), technical replicate 1 — viability, normalised (%) = 38.1 (active)
